Tests used:
rat tails = conditions: rats, s.c.; calculated from LD 50 and ED 50
Experimental: (§1) The numbering of the compounds is the same as the numbering of the preparative examples. […] The ED50 and LD50 were calculated relative to the base.

in vivo = conditions: rat, sc
Experimental: as §1

Question: What does the source list for `CN1CC[C@]23c4c5ccc(O)c4O[C@H]2[C@@H](O)C=C[C@H]3[C@H]1C5` [Morphine, reference compound]?
Answer: Therapeutic index LD 50 / ED 50 (rat tails): 69; LD50 (in vivo): 122 mg/kg

Reference: patent US3936463A, “Benzomorphanes” (priority 1972, dated 1976)
